According to the supplement of paper PMC11348887:
Where a name gives a salt, the structure may show the parent alone. The list shows a part of the results. Small differences around the control level are noise.

system: hPSC-derived cortical neurons (WA09); assay: total neurite length per nucleus (MAP2) z-score; higher = more neurite growth; conditions: 5 µM; treatment: days 7-14 after plating, readout day 21

Row | Compound | total neurite length per nucleus (z-score)
1 | COc1cccc(-c2cc(F)ccc2C2Cc3nc(N)nc(C)c3C(=O)N2)n1 (stereo not given) | -3.19
2 | COc1cccc(NC(=O)/C=C/c2ccc(Cl)cc2)c1 | 0.00157
3 | CCC1C/C(=C\c2cccnc2)C(=O)/C(=C/c2cccnc2)C1 (stereo not given) | -6.35
4 | CC[N+](CC)(CC)CCOc1cccc(OCC[N+](CC)(CC)CC)c1OCC[N+](CC)(CC)CC [Gallamine Triethiodide] | 0.491
5 | CC[C@@H]1C(=O)N(C)c2cnc(Nc3ccc(C(=O)NC4CCN(C)CC4)cc3OC)nc2N1C1CCCC1 | -1.28
6 | Nc1ccc(S(=O)(=O)Nc2ccccn2)cc1 [Sulfapyridine] | -0.172

system: hPSC-derived cortical neurons (WA09); assay: nucleus roundness z-score vs screen plate; higher = rounder nuclei (more mature); conditions: 5 µM; treatment: days 7-14 after plating, readout day 21

Row | Compound | nucleus roundness z-score
7 | Cc1c(F)cc(C(=O)NC2CC2)cc1-c1ccc(C(=O)NCC(C)(C)C)cn1 | -0.15
8 | O=C(O)CCC(=O)Nc1ccc(S(=O)(=O)Nc2nccs2)cc1 [Succinylsulfathiazole] | 0.402
9 | Cc1c(-c2ccccc2)oc2c(C(=O)OCCN3CCCCC3)cccc2c1=O [Flavoxate HCl] | -0.21
10 | O=c1[nH]c(=O)n([C@H]2C[C@H](O)[C@@H](CO)O2)cc1I [Idoxuridine] | 1.5
11 | CN1C(=O)C(Cc2c[nH]c3ccccc23)NC1=S (stereo not given) [Necrostatin-1] | 0.369
12 | CC(=O)OCC(=O)[C@H]1CC[C@H]2[C@@H]3CCC4=CC(=O)CC[C@]4(C)[C@H]3CC[C@]12C [Deoxycorticosterone acetate] | 0.35
13 | CCCc1cc(C)[nH]c(=O)c1CNC(=O)c1cc(-c2ccc(N3CCN(C(C)C)CC3)nc2)cc2c1cnn2C(C)C | 0.0137
14 | COC(=O)C1=CO[C@@H](O[C@@H]2O[C@H](CO)[C@@H](O)[C@H](O)[C@H]2O)[C@@H]2C(CO)=CC[C@H]12 [Geniposide] | 0.0145
15 | CC1(C)S[C@@H]2[C@H](NC(=O)[C@H](NC(=O)N3CCNC3=O)c3ccccc3)C(=O)N2[C@H]1C(=O)O [Azlocillin sodium salt] | 1.34
16 | NC(=O)c1noc([C@H](CCCC2CCCCC2)CC(=O)NO)n1 | 0.697
17 | NC(=O)C(c1ccccc1)(c1ccccc1)[C@@H]1CCN(CCc2ccc3c(c2)CCO3)C1 [Darifenacin HBr] | -1.92
18 | CC[C@H]1OC(=O)C[C@@H](O)[C@H](C)[C@@H](O[C@@H]2O[C@H](C)[C@@H](O[C@H]3C[C@@](C)(O)[C@@H](O)[C@H](C)O3)[C@H](N(C)C)[C@H]2O)[C@@H](CC=O)C[C@@H](C)C(=O)/C=C/C(C)=C/[C@@H]1CO[C@@H]1O[C@H](C)[C@@H](O)[C@@H](OC)[C@H]1OC [Tylosin tartrate] | -0.00267
19 | Cc1cc(Cl)ccc1OCCCC(=O)NO [Droxinostat] | -0.142
20 | CCOc1cc(C(=O)N2CCC(N3CCN(C)CC3)CC2)ccc1Nc1ncc2c(n1)N(C1CCCC1)c1ccccc1C(=O)N2C | -8.33
21 | CN(C)C/C=C/C(=O)Nc1cc2c(Nc3ccc(F)c(Cl)c3)ncnc2cc1O[C@H]1CCOC1 [Afatinib (BIBW2992)] | 3.19
22 | CC(C)(C)c1cc(C(C)(C)C)c(NC(=O)c2c[nH]c3ccccc3c2=O)cc1O [Ivacaftor (VX-770)] | 0.529
23 | CCc1cccc(CC)c1NC(=O)N1Cc2[nH]nc(NC(=O)c3ccc(N4CCN(C)CC4)cc3)c2C1 | -0.937
24 | O=c1ncn2nc(Sc3ccc(F)cc3F)ccc2c1-c1c(Cl)cccc1Cl | -0.457
25 | CCOP(=O)(OCC)C(=Cc1cc(C(C)(C)C)c(O)c(C(C)(C)C)c1)P(=O)(OCC)OCC | 0.787
26 | CCN(CC)C(=O)C1(c2ccccc2)CC1CN (stereo not given) [Milnacipran HCl] | 0.58

Three structures from above, arranged by heavy-atom count, high to low.
Row | Compound | nucleus roundness z-score
18 | CC[C@H]1OC(=O)C[C@@H](O)[C@H](C)[C@@H](O[C@@H]2O[C@H](C)[C@@H](O[C@H]3C[C@@](C)(O)[C@@H](O)[C@H](C)O3)[C@H](N(C)C)[C@H]2O)[C@@H](CC=O)C[C@@H](C)C(=O)/C=C/C(C)=C/[C@@H]1CO[C@@H]1O[C@H](C)[C@@H](O)[C@@H](OC)[C@H]1OC [Tylosin tartrate] | -0.00267
24 | O=c1ncn2nc(Sc3ccc(F)cc3F)ccc2c1-c1c(Cl)cccc1Cl | -0.457
8 | O=C(O)CCC(=O)Nc1ccc(S(=O)(=O)Nc2nccs2)cc1 [Succinylsulfathiazole] | 0.402

(further entries)

Row | Compound | nucleus roundness z-score
27 | CCCCCCCCc1ccc(CCC(N)(CO)CO)cc1 [Fingolimod (FTY720) HCl] | -11.7
28 | O=C(O)[C@]1(Cc2cccc(Nc3nccs3)n2)CC[C@@H](Oc2cccc(Cl)c2F)CC1 | 0.166
29 | Cc1cc(F)c(C(=O)Nc2cccc(-c3nncn3C(C)C)n2)cc1-n1cnc(C2CC2)c1 [Selonsertib (GS-4997)] | 0.202
30 | N=C(N)Nc1ccc(C(=O)Oc2ccc3cc(C(=N)N)ccc3c2)cc1 [Nafamostat Mesylate] | 0.396
31 | O=c1ccn([C@@H]2O[C@H](CO)[C@@H](O)[C@H]2O)c(=O)[nH]1 [Uridine] | 0.236
32 | O=C(Nc1cccc(C(F)(F)F)c1)Nc1cc(S(=O)(=O)NC2CC2)ccc1-c1ccsc1 | -0.434
33 | NCCc1c[nH]cn1 [Histamine 2HCl] | 0.375
34 | COc1ccc(S(=O)(=O)N(CCO)c2ccccc2CN(C)C/C=C/c2ccc(Cl)cc2)cc1 [KN-93 Phosphate] | -1.05
35 | Cc1ccc(Sc2cncc3sc(C(N)=O)cc23)cc1 | -1.52
36 | O=C1NCC2(CCN(CCc3ccccc3)CC2)O1 [Fenspiride HCl] | 1.21
37 | CCCCCCc1ccc(O)cc1O [Hexylresorcinol] | 0.271
38 | O=C(c1cc(Cc2n[nH]c(=O)c3ccccc23)ccc1F)N1CCN(C(=O)C2CC2)CC1 | 0.663
39 | COC(=O)C1=C(C)NC(C)=C(C(=O)OC(C)(C)CN(C)CCC(c2ccccc2)c2ccccc2)C1c1cccc([N+](=O)[O-])c1 (stereo not given) [Lercanidipine hydrochloride] | -10.2
40 | COc1cccc(-c2cc(F)ccc2C2Cc3nc(N)nc(C)c3C(=O)N2)n1 (stereo not given) | -1.14
41 | COc1cccc(NC(=O)/C=C/c2ccc(Cl)cc2)c1 | 0.347
42 | CCC1C/C(=C\c2cccnc2)C(=O)/C(=C/c2cccnc2)C1 (stereo not given) | -10.1
43 | CC[N+](CC)(CC)CCOc1cccc(OCC[N+](CC)(CC)CC)c1OCC[N+](CC)(CC)CC [Gallamine Triethiodide] | 0.786
44 | CC[C@@H]1C(=O)N(C)c2cnc(Nc3ccc(C(=O)NC4CCN(C)CC4)cc3OC)nc2N1C1CCCC1 | -3.16
45 | Nc1ccc(S(=O)(=O)Nc2ccccn2)cc1 [Sulfapyridine] | 0.245
